Laboratory results as given in article PMC7819943, “Rice protein-binding microarrays: a tool to detect cis-acting elements near promoter regions in rice”.
This is one part of the list.

Chains of the proteins cited; added tags and fusions are not shown.
UniProt Q0JBA9, entry or part of it: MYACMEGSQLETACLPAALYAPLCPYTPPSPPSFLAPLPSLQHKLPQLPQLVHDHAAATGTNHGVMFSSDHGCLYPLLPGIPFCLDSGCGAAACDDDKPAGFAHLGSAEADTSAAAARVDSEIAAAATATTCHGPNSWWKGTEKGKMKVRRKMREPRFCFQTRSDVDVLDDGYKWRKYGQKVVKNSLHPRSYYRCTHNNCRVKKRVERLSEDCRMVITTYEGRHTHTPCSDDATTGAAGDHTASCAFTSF

What follows are sequences tested against OsWRKY34 (Oryza sativa, UniProt Q0JBA9 1-250) (assay: protein-binding microarray (RPBM); PBS, 2% BSA, 51.3 ng/ul salmon testes DNA, 50 uM zinc acetate, 200 nM TF, 25 C, 1 h; high values mean tight binding). Settings: protein: recombinant; tags: N-terminal polyhistidine and DsRed monomer fusion (pET32a); label: CyDye5-dUTP incorporated in the synthesized complementary strand; 3' TTTTT single-stranded linker to array surface; dsDNA, one strand shown.
Procedure, shortened: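 A custom Agilent array was converted to double-stranded form by primer extension with Cy5-dUTP and blocked with 2% BSA. Protein at 200 nM in PBS with 2% BSA, salmon testes DNA and 50 µM zinc acetate was applied for 1 h at 25 °C, followed by washing. The proteins were polyhistidine–DsRed N-terminal fusions of transcription factors, expressed in E. coli BL21-CodonPlus and Ni–NTA-purified. The binding signal is per-feature fluorescence intensity (arbitrary units) from an Axon 4000B scanner.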

Sequence | binding signal
GTTTTGAAAGGTATTGTTGGGTAGTAATAGGCTTCATCTTCGGAGTCACCTAGTGCAG | 10200 fluorescence intensity (a.u.)
CGCCCATCGCGGCATCGCCTCCTCTGCTTCGTTTCCTTCTCGGAGTCACCTAGTGCAG | 8600 fluorescence intensity (a.u.)
AGCCGATCAGCTTCCAGCTCTTCATCCCAGCTTGCATCGTCGGAGTCACCTAGTGCAG | 9300 fluorescence intensity (a.u.)
TTCATTATTCATCCATCACTCGTTCGATCTCTCCCATATACGGAGTCACCTAGTGCAG | 10100 fluorescence intensity (a.u.)
TCCGCTCCATTCCTGATTCCTCCTCCCAACTCTTGCTTCCCGGAGTCACCTAGTGCAG | 10800 fluorescence intensity (a.u.)
ATCGTTATCATGATAACATTAGTTTTTTCGTTGCATTTTTCGGAGTCACCTAGTGCAG | 9160 fluorescence intensity (a.u.)
GGCAATGCTTCACCGTCGCTTGCACCCCTTTCTCATGTGTCGGAGTCACCTAGTGCAG | 9790 fluorescence intensity (a.u.)
AACTGTACCCACTCCATTTCCGTTGAAACTAATTATTTTCCGGAGTCACCTAGTGCAG | 10800 fluorescence intensity (a.u.)
AGAGATTTAGGGGAGGATTGGATTAGGTTACACTATATAGCGGAGTCACCTAGTGCAG | 8120 fluorescence intensity (a.u.)
TCGTGAACCGGCGCTACTACTTCTCCTGTGCTTTGACCACCGGAGTCACCTAGTGCAG | 11200 fluorescence intensity (a.u.)
CATGTACCATATAGCATGCACTGTATATCCTTCTACCTCTCGGAGTCACCTAGTGCAG | 8500 fluorescence intensity (a.u.)
TGTGAGCACTCAGCACTGTATCTGTATGTTGTTTTGTCGTCGGAGTCACCTAGTGCAG | 11200 fluorescence intensity (a.u.)
CATTCGTTTCTCTCTTTCTCTTCCCTGCTACTCGCTCCTCCGGAGTCACCTAGTGCAG | 8100 fluorescence intensity (a.u.)
CGCACACGTGTCCCCTATCACGCGTACTCTAGCTTCCAGTCGGAGTCACCTAGTGCAG | 9070 fluorescence intensity (a.u.)
CGCTGTATTTTGTTGGGATCACCTGTACATTTCTTCACAACGGAGTCACCTAGTGCAG | 10900 fluorescence intensity (a.u.)
ACATTAAGCATAAAGCATTATGTTTCTTTTTTTTTTTCATCGGAGTCACCTAGTGCAG | 8110 fluorescence intensity (a.u.)
AACTTCAGTCCTTTTCCATCACATCAACCTGTCATATACACGGAGTCACCTAGTGCAG | 8220 fluorescence intensity (a.u.)
GCAGTCCCAATTTTGCAATTTTCTCCTCAACGGTTGCCTACGGAGTCACCTAGTGCAG | 8190 fluorescence intensity (a.u.)
GATCGAGTACCGGAGGCTGACCCCGGAAGGGGCGGGGAGGCGGAGTCACCTAGTGCAG | 11400 fluorescence intensity (a.u.)
ACCTTACGCGACCCCGAACCTAAACCCTCTGCGAAACGCTCGGAGTCACCTAGTGCAG | 9140 fluorescence intensity (a.u.)
ACCAGCACCCCACCTCGGCTTTACTTCTCTGCTCTGCTCACGGAGTCACCTAGTGCAG | 9230 fluorescence intensity (a.u.)

Sequence | binding signal
TCCATATACAGTTTCCGGCCAAAAAATTACTAACACCGTTCGGAGTCACCTAGTGCAG | 8700 fluorescence intensity (a.u.)
TTCTCTTTTTCTTTTTATTTTTTCGTTCTCGTCGCCGCCGCGGAGTCACCTAGTGCAG | 8330 fluorescence intensity (a.u.)
CGGTGGCGGGGTTCTTCTTTGGCGACTTGGCCTCCTTGTTCGGAGTCACCTAGTGCAG | 10600 fluorescence intensity (a.u.)
CTACCATGGTCCCAAGTCTCATTTGCAACTTTTTTACTCCCGGAGTCACCTAGTGCAG | 8260 fluorescence intensity (a.u.)
TCCTCTCTTTTGCATGTCATATTAGTAGTATGAAGTTGATCGGAGTCACCTAGTGCAG | 8200 fluorescence intensity (a.u.)
ACGTACAATTATAATTACTGTGTATATATGCATGCGCCAACGGAGTCACCTAGTGCAG | 8380 fluorescence intensity (a.u.)
TCTAGACATTCTCCAATTGTCCTGTTCATCTTGTCTAGACCGGAGTCACCTAGTGCAG | 8270 fluorescence intensity (a.u.)
AAGGGATTTTGAGTTTTTATTTGCATTGTTTGACCACTCACGGAGTCACCTAGTGCAG | 10500 fluorescence intensity (a.u.)
CCAAGTAAAATTTTGTGCCTCTTATAATTTTTTGATGTTACGGAGTCACCTAGTGCAG | 8320 fluorescence intensity (a.u.)
TTTTGCAGTTATTTCATGCATTTACTTTTAAAATGCAATTCGGAGTCACCTAGTGCAG | 8800 fluorescence intensity (a.u.)
ATCTCAGTTCTCATACAAATATCTTCGCTTGGTCACGATCCGGAGTCACCTAGTGCAG | 8960 fluorescence intensity (a.u.)
CCACAGCACCACTACTACGACCGACACGAGCCACAGAGTCCGGAGTCACCTAGTGCAG | 8470 fluorescence intensity (a.u.)
TCAATACCTGGCTCACTTGCAGTGTACTCTCCAACAACTTCGGAGTCACCTAGTGCAG | 8790 fluorescence intensity (a.u.)
GGTTCATGCTTCTCCAATTTTTTTACGTATACAACTACTGCGGAGTCACCTAGTGCAG | 8700 fluorescence intensity (a.u.)
AATAGATTGAAGTATGATGAGTTTTTTCTTATTTACCGTTCGGAGTCACCTAGTGCAG | 8700 fluorescence intensity (a.u.)
AAGTTTATGTGTGTAGGAAAGTTTTGATGTGATGGAAAATCGGAGTCACCTAGTGCAG | 8350 fluorescence intensity (a.u.)
CGATCTCCAGGTGCACCAAAACACTCGCTCTCGCCTTGACCGGAGTCACCTAGTGCAG | 9420 fluorescence intensity (a.u.)
CATATGCTATTTTCTGTTTCAAACTTTTTTTCACAAAGCGCGGAGTCACCTAGTGCAG | 10200 fluorescence intensity (a.u.)
GTGCTTGCCCTTTGTTGCGTTGGTGTTGTTTATGTTCTCTCGGAGTCACCTAGTGCAG | 12300 fluorescence intensity (a.u.)
GTGATAGAAAAGTTGTGTGTGTATGAAATGTTTGATGCGACGGAGTCACCTAGTGCAG | 8750 fluorescence intensity (a.u.)
GGCCCTTATAAATAACTGACCATGTTGCCTGAATTTTACCCGGAGTCACCTAGTGCAG | 11400 fluorescence intensity (a.u.)

Sequence | binding signal
CACCCACAAAGCCACCACTGACCACTCGCTTTGCCAAGCACGGAGTCACCTAGTGCAG | 10200 fluorescence intensity (a.u.)
CCCTTGTAATTATTTGATATTAGATCATTCCCTAATATTCCGGAGTCACCTAGTGCAG | 9690 fluorescence intensity (a.u.)
AACCCTTTTCATCCTGTCACGCCACCGAGGCACCCGCCTCCGGAGTCACCTAGTGCAG | 8960 fluorescence intensity (a.u.)
TTATGTTTGAGTACTATATGTTGCGTTTTAGTTTTAGTTCCGGAGTCACCTAGTGCAG | 10100 fluorescence intensity (a.u.)
ACAGAAATTTTAGAGCTATGTTTTGAATGCACAGTTCCTACGGAGTCACCTAGTGCAG | 8060 fluorescence intensity (a.u.)
TCTCTCTCTACTCCCACTGTCTTGCTGCTCCCGCCGGTCCCGGAGTCACCTAGTGCAG | 10100 fluorescence intensity (a.u.)
TCTTGTACTACTACGTACTACTCCATCGACGCTCGCCAATCGGAGTCACCTAGTGCAG | 8240 fluorescence intensity (a.u.)
AAGTCTGCTATCATTGCGTAATCACGGTTTGTGCCTTTGTCGGAGTCACCTAGTGCAG | 10400 fluorescence intensity (a.u.)
GTACCGGCGACAGCAACAGCAATTGGTTTCTGCTTCTCGCCGGAGTCACCTAGTGCAG | 9270 fluorescence intensity (a.u.)
AGTACTACCATCCATCCACAATATCGTTACTGAACAACGTCGGAGTCACCTAGTGCAG | 9950 fluorescence intensity (a.u.)
GAGGGGACGGCCATGGGTGGGTGGGCCCGGCTCCCGGCTCCGGAGTCACCTAGTGCAG | 8880 fluorescence intensity (a.u.)
GGCTATTTCTGTACTAGTGATTGGTCACTGCTCACACTGACGGAGTCACCTAGTGCAG | 8360 fluorescence intensity (a.u.)
ACATGCCAAATTGGCGATTGCCATTGAGTTCCATCCATCCCGGAGTCACCTAGTGCAG | 8590 fluorescence intensity (a.u.)
CCTTGCCACCCTTGCACGCACATGGCGTTGTGTGCCACGTCGGAGTCACCTAGTGCAG | 9920 fluorescence intensity (a.u.)
CCATCGCCGCCGCCCTCTTCTTCTTCTTCTTGCGAAGCAACGGAGTCACCTAGTGCAG | 8820 fluorescence intensity (a.u.)
CGGTGTACTACTTTTATATATGCAAACCTTTATTGCCTGACGGAGTCACCTAGTGCAG | 10300 fluorescence intensity (a.u.)
ACTGTGATACATTCTACATAATTTATTCATTTATTTGCATCGGAGTCACCTAGTGCAG | 8900 fluorescence intensity (a.u.)
CTGGTTTGGCTATTATTTCCTATGTATATGTATTTTGTACCGGAGTCACCTAGTGCAG | 12800 fluorescence intensity (a.u.)
CTGCCACCGGTCCCCGGGCCTCTTCCTCTGCCGCCTCGTTCGGAGTCACCTAGTGCAG | 9050 fluorescence intensity (a.u.)
TTAATTAGCCGCGGCCTTCCTGCCTTTGTCACGTACTACTCGGAGTCACCTAGTGCAG | 8830 fluorescence intensity (a.u.)
TCTCTCTGAACCTCCTTTGTTGCGTTGACTGTGCTCTCTGCGGAGTCACCTAGTGCAG | 15200 fluorescence intensity (a.u.)

Sequence | binding signal
TAACACTAGTGCTCTTTCGTTTGGCTTTATGCTCTTCTTTCGGAGTCACCTAGTGCAG | 12000 fluorescence intensity (a.u.)
ACCCAACCACCTAGCTATCCCCACACATGATCACACTAGCCGGAGTCACCTAGTGCAG | 8090 fluorescence intensity (a.u.)
CTGTCAAAATGTTTGTGGTATATTGTGCATCCTTTCTAATCGGAGTCACCTAGTGCAG | 9400 fluorescence intensity (a.u.)
TGGATCTCTGCCATGCTCTCTCACTGACATCGTGGGCCCACGGAGTCACCTAGTGCAG | 10600 fluorescence intensity (a.u.)
CCCTTTCCTTTTCTTTTTTTTTCTCATTTTATCCACAATTCGGAGTCACCTAGTGCAG | 9870 fluorescence intensity (a.u.)
AAGCTTCGTCATTTCGTTCCTCAGTAATATCTCATTTTCCCGGAGTCACCTAGTGCAG | 9070 fluorescence intensity (a.u.)
TGGCGCCGCGGCCTGGCCGTTGACCGATCGCGATGGCGCGCGGAGTCACCTAGTGCAG | 8980 fluorescence intensity (a.u.)
GTATCAGTAGCCCTGCAGATTCTTGCTACCAGTCACACCTCGGAGTCACCTAGTGCAG | 8830 fluorescence intensity (a.u.)
CCGTCGCAACCTCCATCTCCTCCGACGCTTCTCCGCTCCGCGGAGTCACCTAGTGCAG | 9840 fluorescence intensity (a.u.)
TAATGTGCCGCCTCCGACTCTCTTCTCTTCTTTGCCCTTGCGGAGTCACCTAGTGCAG | 10400 fluorescence intensity (a.u.)
AACTCGAGCCTCTCTCTGTGTGTCTTTCCCACCATCTGTCCGGAGTCACCTAGTGCAG | 8960 fluorescence intensity (a.u.)
ATGGTAGTCTGGTTCGGTCCGTGAGTTTTCTGATTTTGATCGGAGTCACCTAGTGCAG | 9850 fluorescence intensity (a.u.)
CGTCCCCGCCCGCCGCGGCCTCTCTCTCTCGATCGAATCTCGGAGTCACCTAGTGCAG | 8400 fluorescence intensity (a.u.)
CGCTGTACTGCCTTCCGTCTAGTAATTGCTAATTGCTACTCGGAGTCACCTAGTGCAG | 8270 fluorescence intensity (a.u.)
TCGGCATCGGACGGTCACCGACGTCTCTCAAGGCGGCGAACGGAGTCACCTAGTGCAG | 8040 fluorescence intensity (a.u.)
AAACGCCATCAGACGTTCGACACGTACACACGCCCTGCGGCGGAGTCACCTAGTGCAG | 9730 fluorescence intensity (a.u.)
TTTCGTTTTCTCTTGGTCAACATTAATCCGCTCGATCGCCCGGAGTCACCTAGTGCAG | 9890 fluorescence intensity (a.u.)
GTTGTCATTTCTTAATTCATGCTGTCATAATCCGTTAGTCCGGAGTCACCTAGTGCAG | 8670 fluorescence intensity (a.u.)
TGATACTCCCGGTCCCATGTCACCGACAAGTATAATCGTTCGGAGTCACCTAGTGCAG | 8060 fluorescence intensity (a.u.)
TCTCTCTTTTTTTAAGCACCTTTTCTGCCTTTTTTCTTTTCGGAGTCACCTAGTGCAG | 12200 fluorescence intensity (a.u.)
TCCCGATATCATATTATAACCCTTCTAGAAATCTAATGTTCGGAGTCACCTAGTGCAG | 8160 fluorescence intensity (a.u.)

Shown as tab-separated lines: entries from further up
Sequence	binding signal
TGGATCTCTGCCATGCTCTCTCACTGACATCGTGGGCCCACGGAGTCACCTAGTGCAG	10600 fluorescence intensity (a.u.)
CCCTTTCCTTTTCTTTTTTTTTCTCATTTTATCCACAATTCGGAGTCACCTAGTGCAG	9870 fluorescence intensity (a.u.)
AAGCTTCGTCATTTCGTTCCTCAGTAATATCTCATTTTCCCGGAGTCACCTAGTGCAG	9070 fluorescence intensity (a.u.)
TGGCGCCGCGGCCTGGCCGTTGACCGATCGCGATGGCGCGCGGAGTCACCTAGTGCAG	8980 fluorescence intensity (a.u.)
GTATCAGTAGCCCTGCAGATTCTTGCTACCAGTCACACCTCGGAGTCACCTAGTGCAG	8830 fluorescence intensity (a.u.)
CCGTCGCAACCTCCATCTCCTCCGACGCTTCTCCGCTCCGCGGAGTCACCTAGTGCAG	9840 fluorescence intensity (a.u.)
TAATGTGCCGCCTCCGACTCTCTTCTCTTCTTTGCCCTTGCGGAGTCACCTAGTGCAG	10400 fluorescence intensity (a.u.)
AACTCGAGCCTCTCTCTGTGTGTCTTTCCCACCATCTGTCCGGAGTCACCTAGTGCAG	8960 fluorescence intensity (a.u.)
ATGGTAGTCTGGTTCGGTCCGTGAGTTTTCTGATTTTGATCGGAGTCACCTAGTGCAG	9850 fluorescence intensity (a.u.)
CGTCCCCGCCCGCCGCGGCCTCTCTCTCTCGATCGAATCTCGGAGTCACCTAGTGCAG	8400 fluorescence intensity (a.u.)
CGCTGTACTGCCTTCCGTCTAGTAATTGCTAATTGCTACTCGGAGTCACCTAGTGCAG	8270 fluorescence intensity (a.u.)
TCGGCATCGGACGGTCACCGACGTCTCTCAAGGCGGCGAACGGAGTCACCTAGTGCAG	8040 fluorescence intensity (a.u.)
AAACGCCATCAGACGTTCGACACGTACACACGCCCTGCGGCGGAGTCACCTAGTGCAG	9730 fluorescence intensity (a.u.)
